Laboratory results: PubChem BioAssay AID1671195 (Yale University, 2021)

Screen: 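Regulators of LDL receptor activity judged by labelled LDL uptake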 (primary screen)
Cells: human Huh7 hepatoma cells
Reagent: siRNA pool against human genes, 18 nM
Time to read-out: about 2 to 2.5 days of knockdown, then 8 h LDL uptake
Challenge: DiI-labelled LDL at 30 µg/ml for 8 h, in lipoprotein-deficient serum medium
Measured: 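Per-cell DiI-LDL intensity by automated imaging; well means scaled to the plate median and given as a robust z-score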
Reading the numbers: robust z-score: higher = more LDL uptake after knockdown
Hit rule: 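a gene counts as active if at least two replicate z-scores exceed ±2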
The deposit covers about 22,000 reagents; shown is a random part of them. About 1,510 of all reagents (6.9%) count as active. 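Active includes knockdowns raising or lowering LDL uptake; positive z-scores mean more uptake, negative mean less.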 Reagents against one gene are numbered here.

| Gene | pool no. | robust z-score, replicate 1 | robust z-score, replicate 2 | robust z-score, replicate 3 | outcome |
| --- | --- | --- | --- | --- | --- |
| ZNF572 | 1 | -0.44 | -1.51 | -1.16 | inactive |
| NXPH3 | 1 | 0.978 | 0.0292 | 1.88 | inactive |
| DSC3 | 1 | 0.0972 | -0.102 | 0.584 | inactive |
| RGS10 | 1 | -0.0817 | -0.555 | -0.0569 | inactive |
| ITGBL1 | 1 | 0.212 | -0.403 | 0.386 | inactive |
| MIOX | 1 | -0.438 | -0.544 | -0.374 | inactive |
| ADISSP | 1 | 1.34 | 1.18 | 0.526 | inactive |
| STXBP6 | 1 | 0.127 | 0.604 | -0.846 | inactive |
| LOC340511 (retired record) | 1 | 0.491 | 0.384 | 0.304 | inactive |
| LOC441163 (retired record) | 1 | -0.509 | -0.627 | -0.875 | inactive |
| NKX6-1 | 1 | -0.596 | -0.8 | 0.209 | inactive |
| CCT7 | 1 | -0.881 | -1.13 | -1.38 | inactive |
| SYTL4 | 1 | 2.28 | 1.54 | 1.29 | inactive |
| HSPA9 | 1 | 0.289 | 0.304 | 0.71 | inactive |
| MRPS22 | 1 | -0.0458 | 1.28 | 0.767 | inactive |
| LOC441754 (retired record) | 1 | 1.03 | 0.497 | 0.634 | inactive |
| HOXC12 | 1 | 0.483 | -0.663 | 0.419 | inactive |
| EGFR | 1 | 0.165 | 1.17 | 0.203 | inactive |
| CLEC12A | 1 | -0.108 | 0.589 | -0.0865 | inactive |
| IKZF1 | 1 | 0.177 | 0.727 | 1.62 | inactive |
| IKZF1 | 2 | -1.73 | -1.5 | -0.768 | inactive |
| CST3 | 1 | -0.0184 | -0.27 | 0.306 | inactive |
| LINC02694 | 1 | -0.743 | 0.381 | 2.17 | inactive |
| LOC440069 (retired record) | 1 | 0.0942 | 0.249 | -0.112 | inactive |
| ZNF80 | 1 | -0.619 | -1.04 | -0.664 | inactive |
| LOC441740 (retired record) | 1 | 0.00927 | -0.281 | -0.439 | inactive |
| LOC440677 (retired record) | 1 | 0.448 | 0.261 | 0.374 | inactive |
| DNA2 | 1 | -1.44 | -1.89 | -1.82 | inactive |
| ZNF777 | 1 | -0.95 | 0.627 | 0.0384 | inactive |
| TMEM176A | 1 | 1.42 | -0.0913 | 1.95 | inactive |
| KCNQ2 | 1 | 0.99 | 1.45 | 0.386 | inactive |
| ZNF516 | 1 | 1.11 | 0.981 | 0.911 | inactive |
| PEG3 | 1 | 0.0673 | -0.945 | 0.00601 | inactive |
| RPS19BP1 | 1 | -0.0836 | -0.317 | -0.355 | inactive |
| KCNK7 | 1 | 0.189 | 0.13 | 0.718 | inactive |
| KRTAP4-11 | 1 | 0.389 | 0.0385 | -0.275 | inactive |
| ZFP41 | 1 | -0.425 | -0.651 | -0.327 | inactive |
| EGFL8 | 1 | 0.648 | 0.134 | 0.169 | inactive |
| PALD1 | 1 | -1.39 | 1.57 | 0.569 | inactive |
| LOC440940 (retired record) | 1 | 0.923 | 1.85 | 1.84 | inactive |
| TMT1B | 1 | -1.16 | -0.184 | -1.15 | inactive |
| RPL13AP13 | 1 | -1.25 | -1.45 | -1.41 | inactive |
| OR8D1 | 1 | -0.104 | -0.268 | -0.0547 | inactive |
| SCGB2B2 | 1 | -0.569 | -0.297 | -0.198 | inactive |

Records above whose target name starts with N or n (2):
| Gene | pool no. | robust z-score, replicate 1 | robust z-score, replicate 2 | robust z-score, replicate 3 | outcome |
| --- | --- | --- | --- | --- | --- |
| NXPH3 | 1 | 0.978 | 0.0292 | 1.88 | inactive |
| NKX6-1 | 1 | -0.596 | -0.8 | 0.209 | inactive |

The listing continues:
| Gene | pool no. | robust z-score, replicate 1 | robust z-score, replicate 2 | robust z-score, replicate 3 | outcome |
| --- | --- | --- | --- | --- | --- |
| ZNF264 | 1 | 0.42 | -0.405 | 0.401 | inactive |
| CREBRF | 1 | -0.00312 | -0.821 | 0.385 | inactive |
| LRRC34 | 1 | -0.339 | -0.0323 | -0.9 | inactive |
| LOC441097 (retired record) | 1 | 0.632 | 0.521 | 0.687 | inactive |
| OR4F15 | 1 | -0.714 | -0.955 | -0.624 | inactive |
| KCNH4 | 1 | -0.693 | -1.52 | -0.131 | inactive |
| TLE4 | 1 | 1.2 | 0.811 | 0.639 | inactive |
| GTPBP6 | 1 | 1.7 | 0.179 | 2.17 | inactive |
| NDUFA11 | 1 | 1.53 | 0.993 | 0.243 | inactive |
| TBX6 | 1 | -0.00332 | 0.173 | 0.381 | inactive |
| PRXL2A | 1 | -0.18 | -0.0449 | -0.242 | inactive |
| PSMD14 | 1 | -0.0362 | 0.452 | 1.63 | inactive |
| ARHGAP6 | 1 | -0.65 | -0.335 | -1.17 | inactive |
| LOC389070 (retired record) | 1 | -0.0235 | -0.106 | -0.2 | inactive |
| DIO3OS | 1 | -0.571 | -1.01 | -0.833 | inactive |
| FLRT3 | 1 | 2.38 | 1.11 | 1.9 | active |
| EIF4E3 | 1 | -0.502 | -0.399 | -0.292 | inactive |
| HTR1B | 1 | 0.919 | -0.654 | -0.00348 | inactive |
| SMAP2 | 1 | -1.05 | -0.0463 | -0.869 | inactive |
| LRRC49 | 1 | -1.64 | -1.01 | 0.281 | inactive |
| APP | 1 | -0.565 | 1.14 | 0.27 | inactive |
| ATP6V1G3 | 1 | -0.354 | -0.32 | 0.0998 | inactive |
| NANOS2 | 1 | 2.41 | 2.87 | 2.32 | active |
| PHETA2 | 1 | 1.77 | 1.24 | 1.82 | inactive |
| LOC442731 (retired record) | 1 | 0.921 | 1.56 | 0.549 | inactive |
| GNRHR | 1 | -1.64 | -1.1 | -1.77 | inactive |
| LINC00310 | 1 | 0.439 | -0.000266 | 0.446 | inactive |
| ANKRA2 | 1 | -0.236 | -0.456 | -0.603 | inactive |
| ACBD4 | 1 | -0.552 | -0.379 | -0.206 | inactive |
| SRY | 1 | 0.905 | 0.396 | 0.456 | inactive |
| GLYATL2 | 1 | -1.45 | -0.932 | -1.14 | inactive |
| SLC35D4 | 1 | 0.342 | -0.011 | -0.339 | inactive |
| CYB561 | 1 | -0.481 | -0.343 | -1.05 | inactive |
| STEAP1 | 1 | 0.204 | -1.37 | -0.0894 | inactive |
| ST6GAL1 | 1 | -0.0168 | 0.0805 | 0.034 | inactive |
| LOC442464 (retired record) | 1 | 1.57 | 1.44 | 0.229 | inactive |
| LIPT2-AS1 | 1 | -0.0021 | 0.324 | -0.0998 | inactive |
| CD180 | 1 | -0.545 | -0.864 | -1.79 | inactive |
| OTOP3 | 1 | 1.16 | 1.6 | 2.26 | inactive |
| HIVEP3 | 1 | -1.15 | -1.73 | -1.57 | inactive |
| ZNF137P | 1 | 1.52 | 0.954 | 0.307 | inactive |
| PSMA2 | 1 | 1.5 | 1.55 | 2.45 | inactive |
| MMGT1 | 1 | -0.633 | -0.371 | -0.791 | inactive |
